Test results from article PMC4572079.

Experiments:
[1] = target: T1, hnRNP F (UniProt Q794E4); assay: competition EMSA; details: excess unlabelled competitor vs N1 probe; LightShift Chemiluminescent EMSA kit, RPTC nuclear proteins; antibody 30 min on ice before probe; salt and pH not given; protein in an extract
T1 sequence (looked up, limits assumed): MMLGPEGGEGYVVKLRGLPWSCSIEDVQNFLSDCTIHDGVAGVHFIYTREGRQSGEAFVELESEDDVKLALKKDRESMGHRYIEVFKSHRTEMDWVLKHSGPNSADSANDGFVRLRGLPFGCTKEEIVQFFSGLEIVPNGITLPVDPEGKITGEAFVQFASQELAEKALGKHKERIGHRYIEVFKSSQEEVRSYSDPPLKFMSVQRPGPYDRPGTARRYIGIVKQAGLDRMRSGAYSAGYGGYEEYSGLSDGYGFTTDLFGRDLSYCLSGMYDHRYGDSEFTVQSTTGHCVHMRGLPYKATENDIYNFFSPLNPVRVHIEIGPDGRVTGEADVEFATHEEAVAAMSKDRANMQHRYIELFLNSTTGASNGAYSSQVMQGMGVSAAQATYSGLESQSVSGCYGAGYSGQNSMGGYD

[2] = target: T1, hnRNP F; assay: EMSA supershift; details: anti-hnRNP F; LightShift Chemiluminescent EMSA kit, RPTC nuclear proteins; antibody 30 min on ice before probe; salt and pH not given; protein in an extract; label: biotin (probe)

| Sequence | binding result [1] | binding result [2] |
| --- | --- | --- |
| AGAAAGGAAAGAGGAAGAGG (double strand) [Hnrnpf-RE (M1)] | no binding | – |
| AAGGAAGAGAGAAAAGAGGATGGATCGC (double strand) [Hnrnpf-RE (M4)] | no binding | – |
| AGAAAGGGGAGAGGAAGAGG (double strand) [Hnrnpf-RE (WT)] | – | binds |
| AGAAAGGGGAGAAAAAGAGG (double strand) [Hnrnpf-RE (M3)] | no binding | – |
| AGAAAGGGGAAAGGAAGAGG (double strand) [Hnrnpf-RE (M2)] | no binding | – |

For at least one entry, the source does not settle the construct or the ends of the probe. Results from cells or extracts need not show a direct contact. For some assays here: A negative result means that nothing was seen under these conditions. For some assays here: At least one verdict was read from the data and is not stated in words by the source. Protein sequences can lack the tags named with them.
